# Reference: patent publication US8980842B2, “Contraceptive peptides derived from the venom of the spider Latrodectus mirabilis, nucleotide sequences to transform a microorganism to produce said peptides; methods to obtain the peptides; pharmaceutical compositions containing thereof and use thereof” (Universidad de la Frontera, priority 2010, dated 2015)
# Some entries share one result that the patent states for a list of compounds.
# Test system: human spermatozoa
# Test: Hamster oocyte penetration assay (Yanagimachi et al. 1976), fertilizing capacity of human spermatozoa
# Type: cell-based
# Settings: agent at its IC50 from the sperm motility curve; n=15 oocytes per group; control mean 2.75
# Description: The decrease of the fertilizing capacity of human spermatozoa was assayed using penetration assays in hamster oocytes according to the protocol initially described by Yanagimachi et al. (1976). Briefly, golden hamster oocytes were collected; their […] was removed, and oocytes were subsequently incubated with previously capacitated human spermatozoa at a concentration of 10^7 spermatozoa/ml. The incubation was prolonged for 3-6 hours. […] The oocytes were observed using phase contrast microscopy and were only considered to have been penetrated by spermatozoa when they contained a head in decondensation stage or a male pronucleus inside their cytoplasm.
substance,measurement,value
"20-amino acid linear analog of the venom peptide, cysteine 43 replaced by alanine; SLAKTNCFTTEYFQHCVKDL [Ac-[Ala^43]-ATX41-60-NH2]",number of adhered spermatozoa (fusioned in the striated membrane of hamster oocyte),< 1
